Results are given in words; binding and its absence hold for the method and conditions named. Binding seen in cells or lysates may run through a third protein. Some binding calls cover weakened binding; strength is not graded here.
Molecular target: Netrin-1 receptor DCC (Deleted in Colorectal Cancer) (rat (endogenous in rat cartilage)) (UniProt Q63155)
Assay: co-IP; rat cartilage homogenates (400 ug protein) of sham and OA (ACLT) rats; anti-DCC antibody 1 h, protein-G agarose at 4 °C for 12 h; immunoblot with VEGF antibody; IgG as negative control

Sequences of proteins named here, by UniProt entry; tags and fusion partners are left off. A change or cut given only in a name is not applied to a line headed by its entry. Residues count along the entry.
UniProt Q63155, residues 26-1445: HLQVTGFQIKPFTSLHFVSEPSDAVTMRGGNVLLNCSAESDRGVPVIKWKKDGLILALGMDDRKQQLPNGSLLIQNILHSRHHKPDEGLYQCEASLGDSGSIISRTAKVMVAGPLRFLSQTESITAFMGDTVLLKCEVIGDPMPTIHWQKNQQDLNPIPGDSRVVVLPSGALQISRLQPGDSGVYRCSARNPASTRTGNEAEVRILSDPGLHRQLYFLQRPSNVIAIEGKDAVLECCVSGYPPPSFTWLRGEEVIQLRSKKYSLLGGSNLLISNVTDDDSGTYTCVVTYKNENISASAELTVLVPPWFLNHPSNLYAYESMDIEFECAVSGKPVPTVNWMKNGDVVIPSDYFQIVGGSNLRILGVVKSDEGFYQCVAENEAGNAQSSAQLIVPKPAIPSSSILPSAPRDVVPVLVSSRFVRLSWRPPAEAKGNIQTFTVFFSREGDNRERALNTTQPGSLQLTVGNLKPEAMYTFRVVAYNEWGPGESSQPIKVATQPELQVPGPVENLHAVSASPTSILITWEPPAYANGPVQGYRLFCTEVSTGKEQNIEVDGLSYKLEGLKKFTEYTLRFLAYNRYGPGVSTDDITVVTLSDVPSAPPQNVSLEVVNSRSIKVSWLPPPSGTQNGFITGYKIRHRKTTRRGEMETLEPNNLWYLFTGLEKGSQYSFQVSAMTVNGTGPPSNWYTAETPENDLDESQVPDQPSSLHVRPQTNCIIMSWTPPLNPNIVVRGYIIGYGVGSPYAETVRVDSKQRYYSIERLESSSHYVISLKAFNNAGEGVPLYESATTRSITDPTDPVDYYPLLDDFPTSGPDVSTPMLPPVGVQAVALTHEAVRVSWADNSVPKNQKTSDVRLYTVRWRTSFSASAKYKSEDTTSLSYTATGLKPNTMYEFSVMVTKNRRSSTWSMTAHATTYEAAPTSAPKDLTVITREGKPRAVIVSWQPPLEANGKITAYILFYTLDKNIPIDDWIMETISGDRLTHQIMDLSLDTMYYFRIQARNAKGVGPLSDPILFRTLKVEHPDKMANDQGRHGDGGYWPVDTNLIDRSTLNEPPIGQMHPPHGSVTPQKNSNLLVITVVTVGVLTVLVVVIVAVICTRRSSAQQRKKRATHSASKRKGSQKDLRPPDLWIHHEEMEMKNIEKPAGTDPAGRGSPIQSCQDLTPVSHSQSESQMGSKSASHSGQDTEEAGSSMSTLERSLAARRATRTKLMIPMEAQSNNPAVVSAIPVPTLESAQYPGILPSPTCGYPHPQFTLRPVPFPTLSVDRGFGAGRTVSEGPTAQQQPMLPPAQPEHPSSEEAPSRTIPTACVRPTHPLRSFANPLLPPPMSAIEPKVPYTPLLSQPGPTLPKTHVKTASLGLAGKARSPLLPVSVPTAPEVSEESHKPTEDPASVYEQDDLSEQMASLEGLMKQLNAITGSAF

binding: binds
B1: Vascular endothelial growth factor (ligand, UniProt P16612 27-214)
chain: APTTEGEQKAHEVVKFMDVYQRSYCRPIETLVDIFQEYPDEIEYIFKPSCVPLMRCAGCCNDEALECVPTSESNVTMQIMRIKPHQSQHIGEMSFLQHSRCECRPKKDRTKPEKKSVRGKGKGQKRKRKKSRFKSWSVHCEPCSERRKHLFVQDPQTCKCSCKNTDSRCKARQLELNERTCRCDKPRR

Reference: publication PMC5975438
